Measurements: PubChem BioAssay AID493014 (National Center for Advancing Translational Sciences (NCATS), 2011)
This is one part of the list. The main result of the screen is listed elsewhere. These columns were measured beside it and carry no call. The list favours compounds with an active or inconclusive main result. Words in brackets tell the shape of the fitted curve; partial curves, single points and poor fits give uncertain potencies.

Assay: qHTS Assay to Find Inhibitors of Chronic Active B-Cell Receptor Signaling
Conditions: ABC-DLBCL IkBa-CBG/CBR reporter, luminescence ratio (green luciferase fused to IkBa over red control in TMD8 lymphoma cells), 4 h
How it was run: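 Doxycycline induced both beetle luciferases in TMD8 lymphoma cells; IKK-driven degradation limits the IkappaBalpha-fused green signal, while red luminescence normalises for cell number and nonspecific effects. Compounds tested up to 46 uM, 4 hrs.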

[1] = measured here: IkBa-CBG green luminescence
[2] = measured here: CBR red luminescence, cell number

Row | Compound | AC50 [1] | AC50 [2]
1 | COc1cccc2c(C)c(C(=O)O)[nH]c12 | 23.1 µM [rising, partial curve, poor fit] | 
2 | CCOC(=O)c1ccc(NC(=O)COc2ccccc2CNCCO)cc1 |  | 22.4 µM [falling, single point]
3 | CCC(=O)Nc1nc2c(c(=O)[nH]1)CCCC2 |  | 28.2 µM [falling, single point]
4 | S=C(NCc1ccc(Cl)c(Cl)c1)Nc1ccc2c(c1)OCO2 |  | 20.6 µM [falling, single point]
5 | Cc1ccc(OCc2nc(C#N)c(NCc3ccc4c(c3)OCO4)o2)cc1 |  | 35.5 µM [falling, single point]
6 | CC(C(=O)Nc1ccc(O)cc1C(=O)O)N1C(=O)/C(=C\c2cccs2)SC1=S (stereo not drawn) |  | 20 µM [falling, partial curve, poor fit]
7 | Cc1ccc(NC(=S)N/N=C2\CC(C)(C)Oc3ccc(O)cc32)cc1 | 18.4 µM [falling, partial curve, poor fit] | 
8 | CCCc1cc(=O)oc2cc(C)cc(OCC(=O)Nc3ccccn3)c12 |  | 2.51 µM [falling, partial curve]
9 | CCN1C(=S)N[C@@H](c2cccc(C(F)(F)F)c2)C(C(=O)OC)=C1C |  | 20 µM [falling, single point]
10 | Cc1ccc2[nH]c(C(=O)NN=C3CCCCC3)c(-c3ccccc3)c2c1 | 2.82 µM [falling, full curve] | 0.891 µM [rising, full curve, poor fit]
11 | CCC(CC)c1nnc(NC(=O)CCCN2C(=O)c3ccccc3C2=O)s1 |  | 4.11 µM [rising, full curve]
12 | CC1CCN(C(=O)CSc2nc3c(c(=O)n(C)c(=O)n3C)n2C)CC1 |  | 5.01 µM [falling, full curve]
13 | CCN(CC)c1nc2c(s1)C(=O)CC(C)(C)C2 |  | 29.1 µM [falling, single point]
14 | CCNc1nc(SC(C)C(=O)Nc2ccccc2)nc(N2CCOCC2)n1 (stereo not drawn) |  | 23.1 µM [rising, single point]
15 | O=C(CN1CCN(S(=O)(=O)c2ccc(Cl)cc2)CC1)NCC1(N2CCOCC2)CCCCC1 |  | 2.06 µM [rising, partial curve, poor fit]
16 | COc1ccc(S(=O)(=O)NCC(=O)Nc2ccc(F)cc2)cc1 |  | 4.61 µM [rising, partial curve, poor fit]
17 | CC1CCN(CCCNC(=O)c2ccc(Cn3c(=S)[nH]c4ccc(Br)cc4c3=O)cc2)CC1 |  | 12.6 µM [falling, partial curve]
18 | CCOC(=O)CNC(=O)CSc1nnc(SCC(=O)NCC(=O)OCC)s1 |  | 35.5 µM [rising, single point]
19 | CCCC(=O)Oc1ccc2c(C)cc(=O)oc2c1 |  | 18.4 µM [falling, partial curve, poor fit]
20 | O=C1/C(=C/c2ccc(Cl)cc2)SC(=S)N1CCC(=O)N1CCCCC1CCO (stereo not drawn) |  | 7.94 µM [falling, partial curve]
21 | FC(F)(F)c1cnc(Nc2ccc(N3CCOCC3)cc2)c(Cl)c1 |  | 8.91 µM [rising, partial curve, poor fit]
22 | COC(=O)c1ccc(NC(=O)NC2CCCCC2)cc1 |  | 29.1 µM [falling, single point]
23 | Cc1nc(C(=O)N(C)C)nn1-c1cc(Cl)ccc1Cl |  | 20.6 µM [rising, partial curve, poor fit]
24 | CCOc1ccccc1C(=O)Nc1nnc(COC)s1 | 20.6 µM [falling, partial curve, poor fit] | 35.5 µM [falling, single point]
25 | COc1ccc2c(C(=O)CN(C)C3CCCCC3)c[nH]c2c1 |  | 2.91 µM [falling, partial curve]
26 | COc1c(OC(C)=O)ccc(/C=C/c2ccc3cccc(OC)c3n2)c1[N+](=O)[O-] |  | 23.1 µM [falling, single point]
27 | O=C(CCN1C(=O)/C(=C/c2ccc(F)cc2)SC1=S)NC1C=CS(=O)(=O)C1 (stereo not drawn) |  | 6.31 µM [falling, partial curve, poor fit]
28 | O=C(N/N=C/c1ccnc2ccccc12)c1ccccc1O |  | 0.447 µM [falling, full curve]
29 | Cc1ccc(-c2ocnc2C(=O)Nc2nc(C)cs2)cc1 |  | 15.8 µM [rising, single point]
30 | COc1ccc(OC)c(C(=O)COC(=O)c2[nH]c(C)c(C(C)=O)c2C)c1 | 13 µM [falling, partial curve] | 2.06 µM [rising, partial curve, poor fit]

Some of these compounds in order of molar mass, smallest number first.
Row | Compound | AC50 [1] | AC50 [2]
5 | Cc1ccc(OCc2nc(C#N)c(NCc3ccc4c(c3)OCO4)o2)cc1 |  | 35.5 µM [falling, single point]
26 | COc1c(OC(C)=O)ccc(/C=C/c2ccc3cccc(OC)c3n2)c1[N+](=O)[O-] |  | 23.1 µM [falling, single point]
18 | CCOC(=O)CNC(=O)CSc1nnc(SCC(=O)NCC(=O)OCC)s1 |  | 35.5 µM [rising, single point]
